# The full ranking holds about 33,000 sequences; the median of “E-score (-0.5 to 0.5)” is about -0.0034, and the highest 2% start at about 0.25. Some of the results follow.
# Biological target: T1, Yap3 (UniProt P38749)
# T1 sequence: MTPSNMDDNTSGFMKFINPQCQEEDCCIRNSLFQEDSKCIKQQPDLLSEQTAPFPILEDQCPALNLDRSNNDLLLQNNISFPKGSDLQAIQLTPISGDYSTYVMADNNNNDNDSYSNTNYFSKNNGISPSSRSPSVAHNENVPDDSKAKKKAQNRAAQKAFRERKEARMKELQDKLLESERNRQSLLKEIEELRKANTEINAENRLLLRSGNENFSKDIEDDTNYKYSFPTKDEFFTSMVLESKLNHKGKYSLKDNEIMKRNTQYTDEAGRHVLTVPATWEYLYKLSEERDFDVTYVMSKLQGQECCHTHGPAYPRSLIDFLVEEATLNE
# Assay: PBM E-score (8-mer binding enrichment) (E-score (-0.5 to 0.5)); higher = stronger / more preferred TF binding
# Settings: protein concentration: 100 nM; construct: GST-full length
# Method in brief: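 Universal all-10-mer Agilent arrays, double-stranded by primer extension on fresh or once-stripped slides, were probed with about 100-200 nM GST-tagged yeast transcription factors made by PURExpress. Fluorescent anti-GST detected bound protein, and masliner normalised the scans. E-scores from the Universal PBM Analysis Suite were given to each ungapped eight-base word pooled with its reverse complement.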
row,Sequence,PBM E-score
1,AGCTTTGC,-0.109
2,TAGATGCA,-0.129
3,GAGCCTCC,-0.234
4,ACTGTTCC,-0.167
5,ACATATCC,0.119
6,CACTAGAG,-0.0399
7,AGTCGCGG,-0.217
8,TGCGGAAA,0.108
9,AACAGCGG,0.0681
10,CGGGCTAG,-0.115
11,GGTGGAAC,-0.133
12,TCTCGAAA,0.0459
13,ACGTTACA,0.064
14,ATTGGTAC,0.169
15,ACTTTGCA,0.153
16,ACCGATCA,0.0144
17,CCAGCCTA,-0.221
18,CCGTGTTC,0.168
19,TACTCAAA,0.041
20,TACATGCA,0.141
21,AACGAATC,0.208
22,GATTGAAC,0.137

row,Sequence,PBM E-score
1,ACGATATC,0.168
2,CCCTTCCA,-0.251
3,AATGCTCG,0.19
4,CAAAAACA,0.0595
5,AACCCCGC,-0.119
6,CAATAAAC,0.169
7,AATTGTTA,0.231
8,ACCCAACT,-0.0173
9,CCACCTTC,-0.232
10,CCCCGCAA,-0.0264
11,CCTCTCAA,0.0828
12,CAGTGAGG,-0.287
13,GGTTCGAA,0.153
14,TCTGTCCA,-0.0138
15,AGTCCCAT,-0.224
16,TCAGGGGA,-0.0601
17,AAATCTCG,0.0309
18,GAACCCTA,-0.054
19,AGAGTTTC,-0.256
20,CAGGAGTA,-0.0122
21,CGGATTTC,0.109
22,GTCCGCAC,-0.00347

row,Sequence,PBM E-score
1,AATAGAAA,0.138
2,CACAAAGC,0.1
3,ACGGACGT,-0.0852
4,GATGAGCA,0.127
5,CAATTGCA,0.0256
6,CACTTGCG,-0.0261
7,ACAAGCAG,-0.068
8,CGGCTTCA,0.0496
9,CAGTGGAG,0.0624
10,CGCTCGGC,-0.104
11,CCCGACCA,-0.0156
12,AGGCGTAG,-0.203
13,ATGTGCGC,0.136
14,CTGCAATA,0.143
15,GAGATACA,0.167
16,AGGATCAG,-0.151
17,CTTACCCA,0.159
18,TTCCAGAA,0.153
19,GGATTACC,0.14
20,TGTGACAA,0.0303
21,GATAGGAA,0.0325
22,ACTTCAGC,-0.0927

# Reprinted at random: 5 entries already listed
row,Sequence,PBM E-score
7,ACAAGCAG,-0.068
17,CTTACCCA,0.159
2,CACAAAGC,0.1
21,GATAGGAA,0.0325
12,AGGCGTAG,-0.203

# Remaining list, next part:

row,Sequence,PBM E-score
1,AAGCGTGG,0.0152
2,GACACGGA,-0.00232
3,CCAATACG,-0.0785
4,GACCTACA,0.0406
5,AAGAAATT,0.199
6,AGAACGCT,-0.139
7,GATACAAA,0.162
8,CATGGTAG,-0.151
9,AAAGACGT,0.135
10,CAGCGGGG,-0.154
11,ATCCTAAG,0.0776
12,GTTTCCTA,0.144
13,ACAGCAAC,0.114
14,CGTATCAC,0.0764
15,CATTGTAC,-0.0434
16,AAAACGGA,0.116
17,AATGTTTG,-0.0638
18,GATGGAAC,0.0141
19,AGAGTTAC,-0.156
20,CATTATAA,0.0345
21,GCCTAGTA,-0.0192
22,AAGCATAG,-0.0363

row,Sequence,PBM E-score
1,ACAGTTGG,0.00482
2,ACGAAGCA,0.00791
3,ATATCGAG,0.0413
4,GACTGAGC,-0.255
5,CATCATAC,0.147
6,GGGGTCGA,-0.24
7,ATTATCGA,0.132
8,GCAAATAC,0.0311
9,AATGCTCT,-0.0877
10,CCCTCCTA,-0.196
11,TCTAGTCA,0.0771
12,CTGGCATA,-0.00058
13,CAACGAGG,-0.00301
14,CATAAGCC,0.17
15,CACCACGC,-0.249
16,GAGGGTCA,-0.287
17,GTACATGA,0.0913
18,TGCTCAAA,-0.00215
19,GCTCTTAC,0.0508
20,CCGCGGTA,0.123
21,CAACGAGA,0.0884
